Reference: patent US8772200B2, “Nitrogen-containing heterocyclic compound and agricultural fungicide” (Nippon Soda Co., Ltd., priority 2010, dated 2014)
Some results were stated once for a whole list of compounds, not compound by compound. At least one structure is not confirmed: it was looked up by name or label, or the drawing left a doubt.

How the values were obtained:
[1] = system: apple scab bacteria (Venturia inaqualis); experiment: Control test of apple scab; format: in vivo; details: emulsion, active ingredient 100 ppm, sprayed on apple seedlings before inoculation; held 2 weeks at 20° C.
[2] = system: cucumber gray mold bacteria (Botrytis cinerea); experiment: Control test of cucumber gray mold; details: emulsion, active ingredient 100 ppm, sprayed on cucumber seedlings before inoculation; held 4 days at 20° C.

Row | SMILES | protective value [1] | protective value [2]
1 | CC(O)c1c(Cl)cccc1Oc1cnc2c(F)c(F)ccc2c1 (stereo not shown) [compound 197] | at least 75% | at least 75%
2 | CON=C(C)c1c(F)cccc1Oc1cc2ccc(F)cc2nc1C [compound 318] | at least 75% | at least 75%
3 | CC(C)(O)c1cc(F)ccc1Oc1cnc2c(F)cccc2c1 [compound 104] | at least 75% | at least 75%
4 | O=Cc1c(Cl)cccc1Oc1cnc2cc(F)ccc2c1 [compound 424] | at least 75% | at least 75%
5 | N#CC(O)c1c(Cl)cccc1Oc1cnc2c(F)cccc2c1 (stereo not shown) [compound 169] | at least 75% | at least 75%
6 | CC(O)C(C)(C)c1ccccc1Oc1cnc2ccccc2c1 (racemic) [compound 253] | at least 75% | at least 75%
7 | COC(C)c1c(C)cccc1Oc1cnc2c(F)cccc2c1 (stereo not shown) [compound 150] | at least 75% | at least 75%
8 | CC(=O)c1c(F)cccc1Oc1cc2cc(F)ccc2nc1C [compound 382] | at least 75% | at least 75%
9 | CC(O)c1c(Br)cccc1Oc1cnc2c(F)cccc2c1 (stereo not shown) [compound 148] | at least 75% | at least 75%
10 | CC(C)(O)C(C)(C)c1ccccc1Oc1cnc2c(c1)CCCC2 [b-1] | at least 75% | at least 75%
11 | Cc1nc2c(F)cccc2cc1Cc1ccccc1C(C)(C)O [compound 325] | at least 75% | at least 75%
12 | CC(C)(CO)C(C)(C)c1ccccc1Oc1cnc2c(F)cccc2c1 [compound 236] | at least 75% | at least 75%
13 | Cc1nc2c(F)cccc2cc1Oc1cccc(Br)c1C(C)(C)O [compound 100] | at least 75% | at least 75%
14 | COC(C)c1c(I)cccc1Oc1cnc2c(F)cccc2c1 (racemic) [compound 208] | at least 75% | at least 75%
15 | CC(C)(O)C(C)(C)c1ccccc1Oc1cnc2sccc2c1 [b-2] | at least 75% | at least 75%
16 | COC(C)c1c(Oc2cnc3c(F)cccc3c2)cccc1[N+](=O)[O-] (stereo not shown) [compound 167] | at least 75% | at least 75%
17 | CCC(C)(O)c1c(Cl)cccc1Oc1cnc2c(F)cccc2c1 (stereo not shown) [compound 96] | at least 75% | at least 75%
18 | Cc1nc2c(F)cccc2cc1Oc1ccccc1C(C)(C)C#N [compound 270] | at least 75% | at least 75%
19 | C=CC(C)(O)c1c(F)cccc1Oc1cc2cccc(F)c2nc1C (stereo not shown) [compound 89] | at least 75% | at least 75%
20 | COC(C)c1c(Cl)cccc1Oc1cnc2c(F)c(F)ccc2c1 (stereo not shown) [compound 198] | at least 75% | at least 75%
21 | CC(C)(O)c1c(F)cccc1Oc1cnc2cc(F)ccc2c1 [compound 126] | at least 75% | at least 75%

Row | SMILES | protective value [1] | protective value [2]
22 | CC(=O)c1c(Br)cccc1Oc1cnc2c(F)cccc2c1 [compound 355] | at least 75% | at least 75%
23 | C[Si](C)(C)OC(c1c(Cl)cccc1Oc1cnc2c(F)cccc2c1)C(F)(F)F (stereo not shown) [compound 158] | at least 75% | at least 75%
24 | CC(C)(O)C(C)(C)c1ccccc1Oc1cnc2ccccc2c1 [compound 227] | at least 75% | at least 75%
25 | CC(O)c1c(Oc2cnc3c(F)cccc3c2)cccc1[N+](=O)[O-] (stereo not shown) [compound 166] | at least 75% | at least 75%
26 | CC(OCc1ccccc1)c1c(Cl)cccc1Oc1cnc2c(F)cccc2c1 (stereo not shown) [compound 160] | at least 75% | at least 75%
27 | COC(c1c(Cl)cccc1Oc1cnc2c(F)cccc2c1)C(C)(C)O (stereo not shown) [compound 180] | at least 75% | at least 75%
28 | COC(C)(C)c1c(F)cccc1Oc1cc2cccc(F)c2nc1C [compound 440] | at least 75% | at least 75%
29 | CC(=O)C(=O)c1c(Cl)cccc1Oc1cnc2c(F)cccc2c1 [compound 375] | at least 75% | at least 75%
30 | COC(C)(C)c1c(F)cccc1Oc1cnc2ccccc2c1 [compound 109] | at least 75% | at least 75%
31 | CC(C)(O)c1ccccc1Cc1cnc2c(F)cccc2c1 [compound 324] | at least 75% | at least 75%
32 | COC(C)c1c(Cl)cccc1Oc1cc2ccc(F)c(F)c2nc1C (stereo not shown) [compound 200] | at least 75% | at least 75%
33 | COC(C)c1c(Cl)cccc1Oc1cnc2c(F)cccc2c1 (stereo not shown) [compound 147] | at least 75% | at least 75%
34 | COC(C)(C)c1c(F)cccc1Oc1cc2ccc(F)c(F)c2nc1C [compound 439] | at least 75% | at least 75%
35 | CC(C)(CO)C(C)(C)c1c(F)cccc1Oc1cnc2ccccc2c1 [compound 235] | at least 75% | at least 75%
36 | CC(=O)C(C)(C)c1c(F)cccc1Oc1cnc2cc(F)ccc2c1 [compound 266] | at least 75% | at least 75%
37 | O=Cc1c(Cl)cccc1Cc1cnc2c(F)cccc2c1 [compound 332] | at least 75% | at least 75%
38 | CCC(O)C(C)(C)c1ccccc1Oc1cnc2ccccc2c1 (racemic) [compound 254] | at least 75% | at least 75%
39 | CC(C)(O)c1c(F)cccc1Oc1cnc2c(F)ccc(F)c2c1 [compound 116] | at least 75% | at least 75%
40 | OC(c1c(F)cccc1Oc1cnc2ccccc2c1)(C(F)(F)F)C(F)(F)F [compound 114] | at least 75% | at least 75%
41 | CC(=O)C(C)(C)c1ccccc1Oc1cnc2ccccc2c1 [compound 260] | at least 75% | at least 75%
42 | CC(C)(O)C(C)(C)c1c(F)cccc1Oc1cnc2ccccc2c1 [compound 263] | at least 75% | at least 75%

Row | SMILES | protective value [1] | protective value [2]
43 | CC(=O)c1c(Cl)cccc1Oc1cc2cccc(F)c2nc1C [compound 359] | at least 75% | at least 75%
44 | CC(C)(CO)c1ccccc1Oc1cnc2ccccc2c1 [compound 228] | at least 75% | at least 75%
45 | Cc1nc2c(F)cccc2cc1Oc1ccccc1C(C)(C)CCO [compound 259] | at least 75% | at least 75%
46 | CCC(C)(C)c1ccccc1Oc1cnc2c(F)cccc2c1 [compound 18] | at least 75% | at least 75%
47 | COC(C)c1c(Oc2cc3cccc(F)c3nc2C)ccc(F)c1Br (racemic) [compound 184] | at least 75% | at least 75%
48 | Cc1nc2c(Cl)cccc2cc1Oc1cccc(F)c1C(C)(C)O [compound 93] | at least 75% | at least 75%
49 | COC(=O)c1c(Br)cccc1Oc1cnc2ccccc2c1 [compound 403] | at least 75% | at least 75%
50 | Cc1nc2c(F)cccc2cc1Oc1cccnc1C(C)(C)O [a-7] | at least 75% | at least 75%
51 | Cc1nc2c(C)cccc2cc1Oc1cccc(F)c1C(C)(C)O [compound 94] | at least 75% | at least 75%
52 | OC1(c2c(F)cccc2Oc2cnc3c(F)cccc3c2)CC1 [compound 298] | at least 75% | at least 75%
53 | COC(C)c1c(Oc2cnc3c(F)cccc3c2)cccc1C(C)=O (racemic) [compound 210] | at least 75% | at least 75%
54 | Cc1nc2ccccc2cc1Oc1ccccc1C(C)(C)C(C)(C)C(C)O (racemic) [compound 256] | at least 75% | at least 75%
55 | O=C(c1c(Cl)cccc1Oc1cnc2c(F)cccc2c1)C1CC1 [compound 363] | at least 75% | at least 75%
56 | CC(C)(C)C(=O)c1c(Cl)cccc1Oc1cnc2c(F)cccc2c1 [compound 365] | at least 75% | at least 75%
57 | CCOC(=O)C(C)(O)c1ccccc1Oc1cnc2ccccc2c1 (racemic) [compound 73] | at least 75% | at least 75%
58 | COC(=O)C(OC)c1c(Cl)cccc1Oc1cnc2c(F)cccc2c1 (stereo not shown) [compound 168] | at least 75% | at least 75%
59 | Cc1nc2c(F)cccc2cc1Oc1cccc(F)c1C(=O)C(C)(C)O [compound 397] | at least 75% | at least 75%
60 | C=CCC(C)(O)c1c(F)cccc1Oc1cnc2c(F)cccc2c1 (racemic) [compound 77] | at least 75% | at least 75%
61 | CC(=O)C(C)(C)c1ccccc1Oc1cnc2c(F)cccc2c1 [compound 269] | at least 75% | at least 75%
62 | Cc1nc2ccccc2cc1Oc1ccccc1C(C)(C)O [compound 67] | at least 75% | at least 75%
